This experiment deals with RAW 264.7. Nature of the experiment: cell viability (MTT) relative to vehicle control; higher = more viable cells. Conditions: stimulus: HMGB1 5 ug/ml, 18 h.
Setting [1] is: compound concentration: 1 ug/ml.

Counter-ions that a name gives are not always drawn. ± gives the standard deviation of the averaged measurements. The list shows a part of the results. Many values rest on one well or one pass, so single values are uncertain.

For `C[C@H]1O[C@@H](n2cc(F)c(=O)[nH]c2=O)[C@H](O)[C@@H]1O`, the cell viability (usually a read-out of living cells in per cent, often relative to untreated cells) (compound concentration: 3 uM) was 114%.
Regarding `C[C@H]1O[C@@H](n2cc(F)c(=O)[nH]c2=O)[C@H](O)[C@@H]1O` [5-fluoro-5'-deoxyuridine], the cell viability (compound concentration: 3 uM) stood at 108%.
Regarding `C[C@H]1O[C@@H](n2cc(F)c(=O)[nH]c2=O)[C@H](O)[C@@H]1O` [Doxifluridine], the cell viability (compound concentration: 3 uM) is 98.3%.
Regarding `O=C(O)C=C1CCCc2ccccc2C1O` (configuration not stated), the cell viability (compound concentration: 3 uM) is 113%.
Take `OCCN1CCN(CCCN2c3ccccc3C=Cc3ccccc32)CC1` [Opipramol dihydrochloride]: for the setting “compound concentration: 3 uM”, the cell viability came out at 105 ± 9.5%.
For the compound `CN(C/C=C/c1ccccc1)Cc1cccc2ccccc12` [Naftifine hydrochloride], the cell viability (compound concentration: 3 uM) worked out at 98.6%.
For the compound `CC(=O)O[C@@H]1C[C@]2(C)[C@@H](C(C)=O)CC[C@H]2[C@@H]2CCC3=CC(=O)CC[C@]3(C)[C@H]21` [11-alpha-Acetoxyprogesterone], the cell viability under setting [1] was 99.9%.
For the compound `CC(=O)CCCCn1c(=O)c2c(ncn2C)n(C)c1=O` [Pentoxifylline], the cell viability (compound concentration: 3 uM) was found to be 99.3 ± 4.7%.
Same read-out and setting: as for `CC(=O)CCCCn1c(=O)c2c(ncn2C)n(C)c1=O`, the figure is 107%; as for `CN1C(=O)OC(C)(C)C1=O` [Trimethadione], 90.3%.
Regarding `CN1C(=O)OC(C)(C)C1=O`, the cell viability (compound concentration: 3 uM) was 103%.
Still for that read-out and setting: as for `O=C(NCCN1CCOCC1)c1ccc(Cl)cc1` [4-Chloro-N-(2-morpholin-4-yl-ethyl)-benzamide], the figure is 93.2%.
On the same count and under the same terms, as for `O=C(NCCN1CCOCC1)c1ccc(Cl)cc1` [Moclobemide], the figure is 101 ± 15%.
For `Cc1c(C(=O)O)c(O)cc2c1C(=O)c1c(O)c([C@H]3O[C@H](CO)[C@@H](O)[C@H](O)[C@H]3O)c(O)c(O)c1C2=O`, under setting [1], the cell viability turned out to be 95.8%.
For `O=C(CCc1ccc(O)cc1)c1c(O)cc(O)cc1O[C@@H]1OC(CO)[C@@H](O)[C@@H](O)C1O` (some centres not stated) [Phloridzin], where the note is “compound concentration: 3 uM”, the cell viability worked out at 96.4%.
Same read-out and setting: as for `Cc1onc(-c2c(F)cccc2Cl)c1C(=O)N[C@@H]1C(=O)N2[C@@H]1SC(C)(C)[C@@H]2C(=O)O` [Flucloxacillin sodium], the figure is 70.2%; as for `CCCC(CCC)C(=O)O[C@H]1C[C@H]2CC[C@@H](C1)[N+]2(C)C` [Anisotropine methyl bromide], 102%; as for `NCCNCCNCCN`, 107%.
For `CN(C)CCCSC(=N)N` [Dimaprit dihydrochloride], the cell viability (compound concentration: 3 uM) was 83.8%.
As to `Nc1ccc(C(=O)O)cc1`, the cell viability (compound concentration: 3 uM) stood at 118%.
The same measure, in the same setting: as for `CCN1CCCC(OC(=O)C(c2ccccc2)c2ccccc2)C1` (configuration not stated) [Piperidolate hydrochloride], the figure is 99.2%; as for `CCN1CCCC(OC(=O)C(c2ccccc2)c2ccccc2)C1` (configuration not stated), 105%.
The same measure, in the same setting: as for `NS(=O)(=O)c1cc(Cl)c(Cl)c(S(N)(=O)=O)c1` [Dichlorphenamide], the figure is 103%; as for `CCCCCNC(=N)N/N=C/c1c[nH]c2ccc(OC)cc12`, 97.3%.
Consider `O=C(Oc1ccccc1C(=O)O)c1ccccc1O`, for which the cell viability (compound concentration: 3 uM) amounted to 108%.
With `O=C(O)c1ccc(S(=O)(=O)N(Cl)Cl)cc1`, the cell viability (compound concentration: 3 uM) stood at 109%.
`COc1c(C)c2c(c(O)c1C/C=C(\C)CCC(=O)O)C(=O)OC2` [Mycophenolic acid]: under setting [1], the cell viability stood at 57.7%.
Regarding `COc1c(C)c2c(c(O)c1C/C=C(\C)CCC(=O)O)C(=O)OC2` [Mycophenolic Acid], the cell viability (compound concentration: 3 uM) turned out to be 51.9%.
Same read-out and setting: as for `COc1c(C)c2c(c(O)c1C/C=C(\C)CCC(=O)O)C(=O)OC2`, the figure is 47.9 ± 22%.
As to `OC[C@H]1O[C@@H](n2cnc3c(NCc4ccccc4)ncnc32)[C@H](O)[C@@H]1O` [6-Benzylaminopurine riboside], the cell viability under setting [1] was 93.5%.
Consider `CCCCCCCCCC[Si](C)(C)CCC(=O)NC(Cc1ccc(C)cc1)c1ccccc1` (configuration not stated) [Sandoz 58-035], for which, where the note is “compound concentration: 3 uM”, the cell viability is 102%.
For the compound `N.N.O=C([O-])C[O-].[Pt+2]` [Nedaplatin], for the setting “compound concentration: 3 uM”, the cell viability worked out at 106%.
Turning to `COC(=O)N[C@H](C(=O)N[C@@H](Cc1ccccc1)[C@@H](O)CN(Cc1ccc(-c2ccccn2)cc1)NC(=O)[C@@H](NC(=O)OC)C(C)(C)C)C(C)(C)C` [Atazanavir], the cell viability (compound concentration: 3 uM) is 111%.
As for `Nc1ccc(S(=O)(=O)Nc2cnc3ccccc3n2)cc1` [Sulfaquinoxaline sodium salt], the cell viability (compound concentration: 3 uM) was determined as 133%.
On the same count and under the same terms, as for `Nc1ccc(S(=O)(=O)Nc2cnc3ccccc3n2)cc1`, the figure is 114%; as for `CNC[C@H](O)[C@@H](O)[C@H](O)[C@H](O)CO` [Meglumine], 90.81 ± 0.66%.
Same read-out and setting: as for `NCCCC(O)(P(=O)(O)O)P(=O)(O)O` [Alendronate], the figure is 105%.
The same measure, in the same setting: as for `NCCCC(O)(P(=O)(O)O)P(=O)(O)O` [Alendronate sodium], the figure is 116%; as for `NCCCC(O)(P(=O)(O)O)P(=O)(O)O`, 101.41 ± 0.035%; as for `N=C(N)NCc1cccc(I)c1` [Iobenguane sulfate], 108%.
On to `CCCCS(=N)(=O)CCC(N)C(=O)O` (racemic) [DL-Buthionine-[S,R]-sulfoximine], for which the cell viability (compound concentration: 3 uM) was 92.5%.
Consider `O=c1c(O)c(-c2ccccc2)oc2cccc(O)c12` [3,5-Dihydroxyflavone], for which, under setting [1], the cell viability is 103%.
`CCC[S+]([O-])c1ccc2[nH]c(NC(=O)OC)nc2c1` (configuration not stated) [Ricobendazole]: the cell viability (compound concentration: 3 uM) is 96%.
In the case of `NC(=O)OCC(COC(N)=O)c1ccccc1` [Felbamate], the cell viability (compound concentration: 3 uM) amounted to 103 ± 9.3%.
As to `Cc1ccnc(NS(=O)(=O)c2ccc(N)cc2)n1` [Sulfamerazine], where the note is “compound concentration: 3 uM”, the cell viability is 110%.
On the same count and under the same terms, as for `Cc1ccnc(NS(=O)(=O)c2ccc(N)cc2)n1`, the figure is 98.1%; as for `C[C@H]1NC(=O)NC1=O` [Methylhydantoin-5-(D)], 94.7%; as for `COCc1nc2c([nH]1)c(=O)n(C)c(=O)n2CC(C)C` [8-Methoxymethyl-3-isobutyl-1-methylxanthine], 102%.
Turning to `[O-][n+]1cccc(CO)c1`, the cell viability (compound concentration: 3 uM) is 117%.
As for `CCCCC/C=C/CCC(=O)N[C@H]1[C@H](Oc2c3cc4cc2Oc2ccc(cc2Cl)[C@@H](O[C@@H]2O[C@H](CO)[C@@H](O)[C@H](O)[C@H]2NC(C)=O)[C@@H]2NC(=O)[C@H](NC(=O)[C@@H]4NC(=O)[C@H]4NC(=O)C(Cc5ccc(c(Cl)c5)O3)NC(=O)[C@H](N)c3ccc(O)c(c3)Oc3cc(O)cc4c3)c3ccc(O)c(c3)-c3c(OC4O[C@H](CO)[C@@H](O)[C@H](O)[C@@H]4O)cc(O)cc3[C@@H](C(=O)O)NC2=O)O[C@H](CO)[C@@H](O)[C@@H]1O` (some centres not stated) [TEICOPLANIN [A(2-1) shown]], under “compound concentration: 3 uM”, the cell viability was determined as 114%.
On to `COc1ccc(C[C@H](N)C(=O)N[C@H]2[C@@H](O)[C@H](n3cnc4c(N(C)C)ncnc43)O[C@@H]2CO)cc1`, for which, where the note is “compound concentration: 3 uM”, the cell viability was 115%.
Turning to `COc1ccc(C[C@H](N)C(=O)N[C@H]2[C@@H](O)[C@H](n3cnc4c(N(C)C)ncnc43)O[C@@H]2CO)cc1` [Puromycin], for the setting “compound concentration: 3 uM”, the cell viability worked out at 48.6%.

The values are drawn from the supplement of paper PMC3682954.
